Experimental data: the supplement of paper PMC8728848
The other results are listed elsewhere or left out.

Tests used:
Assay in all cases: glycan array binding signal (z-score within array); higher = stronger binding
Details in all cases: glycan notation: IUPAC condensed, linker removed
[1] = biological target: Fuc(a1-2)[Gal(a1-4)]Gal(b1-4)GlcNAc
Outline: (§1)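 Glycan array binding is given as a within-array Z-score, which can be read as non-binding when negative. The arrays, 3228 of them, came from the Consortium for Functional Glycomics database and were retained only where the protein sequence was available. Z-scores were averaged across arrays of the same protein sequence at different concentrations or buffers and across linkers.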

[2] = biological target: Fuc(a1-2)[GalNAc(a1-3)]Gal
Outline: as §1

[3] = biological target: Fuc(a1-2)[GalNAc(a1-3)]Gal(b1-3)GalNAc(a1-3)[Fuc(a1-2)]Gal(b1-4)GlcNAc
Outline: as §1

[4] = biological target: Fuc(a1-2)[GalNAc(a1-3)]Gal(b1-3)GalNAc(b1-3)Gal(a1-4)Gal(b1-4)Glc
Outline: as §1

[5] = biological target: Fuc(a1-2)[GalNAc(a1-3)]Gal(b1-3)GlcNAc
Outline: as §1

[6] = biological target: Fuc(a1-2)[GalNAc(a1-3)]Gal(b1-3)GlcNAc(b1-2)Man(a1-3)[Fuc(a1-2)[GalNAc(a1-3)]Gal(b1-3)GlcNAc(b1-2)Man(a1-6)]Man(b1-4)GlcNAc(b1-4)GlcNAc
Outline: as §1

[7] = biological target: Fuc(a1-2)[GalNAc(a1-3)]Gal(b1-3)GlcNAc(b1-2)Man(a1-3)[Fuc(a1-2)[GalNAc(a1-3)]Gal(b1-3)GlcNAc(b1-2)Man(a1-6)]Man(b1-4)GlcNAc(b1-4)[Fuc(a1-6)]GlcNAc
Outline: as §1

[8] = biological target: Fuc(a1-2)[GalNAc(a1-3)]Gal(b1-3)GlcNAc(b1-3)GalNAc
Outline: as §1

[9] = biological target: Fuc(a1-2)[GalNAc(a1-3)]Gal(b1-3)GlcNAc(b1-6)GalNAc
Outline: as §1

[10] = biological target: Fuc(a1-2)[GalNAc(a1-3)]Gal(b1-4)Glc
Outline: as §1

[11] = biological target: Fuc(a1-2)[GalNAc(a1-3)]Gal(b1-4)GlcNAc
Outline: as §1

[12] = biological target: Fuc(a1-2)[GalNAc(a1-3)]Gal(b1-4)GlcNAc(b1-2)Man
Outline: as §1

[13] = biological target: Fuc(a1-2)[GalNAc(a1-3)]Gal(b1-4)GlcNAc(b1-2)Man(a1-3)[Fuc(a1-2)[GalNAc(a1-3)]Gal(b1-4)GlcNAc(b1-2)Man(a1-6)]Man(b1-4)GlcNAc(b1-4)GlcNAc
Outline: as §1

[14] = biological target: Fuc(a1-2)[GalNAc(a1-3)]Gal(b1-4)GlcNAc(b1-2)Man(a1-3)[Fuc(a1-2)[GalNAc(a1-3)]Gal(b1-4)GlcNAc(b1-2)Man(a1-6)]Man(b1-4)GlcNAc(b1-4)[Fuc(a1-6)]GlcNAc
Outline: as §1

[15] = biological target: Fuc(a1-2)[GalNAc(a1-3)]Gal(b1-4)GlcNAc(b1-3)Gal(b1-4)GlcNAc
Outline: as §1

[16] = biological target: Fuc(a1-2)[GalNAc(a1-3)]Gal(b1-4)GlcNAc(b1-3)Gal(b1-4)GlcNAc(b1-3)Gal(b1-4)GlcNAc
Outline: as §1

[17] = biological target: Fuc(a1-2)[GalNAc(a1-3)]Gal(b1-4)GlcNAc(b1-3)GalNAc
Outline: as §1

[18] = biological target: Fuc(a1-2)[GalNAc(a1-3)]Gal(b1-4)GlcNAc(b1-3)[Fuc(a1-2)[GalNAc(a1-3)]Gal(b1-4)GlcNAc(b1-6)]GalNAc
Outline: as §1

[19] = biological target: Fuc(a1-2)[GalNAc(a1-3)]Gal(b1-4)GlcNAc(b1-6)GalNAc
Outline: as §1

[20] = biological target: Fuc(a1-2)[GalNAc(a1-3)]Gal(b1-4)[Fuc(a1-3)]GlcNAc
Outline: as §1

[21] = biological target: Fuc(a1-2)[GalNAc(a1-3)]Gal(b1-4)[Fuc(a1-3)]GlcNAc(b1-3)GalNAc
Outline: as §1

[22] = biological target: Fuc(a1-2)[GalNAc(a1-4)]Gal(b1-4)GlcNAc
Outline: as §1

[23] = biological target: Fuc(a1-2)[GalNAc(b1-3)]Gal
Outline: as §1

Fuc(a1-3)GlcNAc = biological target: Fuc(a1-3)GlcNAc
Outline: as §1

[24] = biological target: Fuc(a1-3)[Gal(b1-4)]Glc6S
Outline: as §1

[25] = biological target: Fuc(a1-3)[Gal(b1-4)]GlcNAc
Outline: as §1

[26] = biological target: Fuc(a1-3)[Gal(b1-4)]GlcNAc(b1-2)Man
Outline: as §1

[27] = biological target: Fuc(a1-3)[Gal(b1-4)]GlcNAc(b1-2)Man(a1-3)[Fuc(a1-3)[Gal(b1-4)]GlcNAc(b1-2)Man(a1-6)]Man(b1-4)GlcNAc(b1-4)GlcNAc
Outline: as §1

[28] = biological target: Fuc(a1-3)[Gal(b1-4)]GlcNAc(b1-2)Man(a1-3)[Fuc(a1-3)[Gal(b1-4)]GlcNAc(b1-2)Man(a1-6)]Man(b1-4)GlcNAc(b1-4)[Fuc(a1-6)]GlcNAc
Outline: as §1

[29] = biological target: Fuc(a1-3)[Gal(b1-4)]GlcNAc(b1-3)Gal(b1-3)[Fuc(a1-4)]GlcNAc
Outline: as §1

[30] = biological target: Fuc(a1-3)[Gal(b1-4)]GlcNAc(b1-3)Gal(b1-4)[Fuc(a1-3)]GlcNAc
Outline: as §1

[31] = biological target: Fuc(a1-3)[Gal(b1-4)]GlcNAc(b1-3)Gal(b1-4)[Fuc(a1-3)]GlcNAc(b1-3)Gal(b1-4)[Fuc(a1-3)]GlcNAc
Outline: as §1

[32] = biological target: Fuc(a1-3)[Gal(b1-4)]GlcNAc(b1-3)GalNAc
Outline: as §1

[33] = biological target: Fuc(a1-3)[Gal(b1-4)]GlcNAc(b1-6)GalNAc
Outline: as §1

[34] = biological target: Fuc(a1-3)[Gal(b1-4)]GlcNAc(b1-6)[Gal(b1-3)GlcNAc(b1-3)]Gal(b1-4)Glc
Outline: as §1

[35] = biological target: Fuc(a1-3)[Gal(b1-4)]GlcNAc6S
Outline: as §1

[36] = biological target: Fuc(a1-3)[Gal3S(b1-4)]Glc
Outline: as §1

[37] = biological target: Fuc(a1-3)[Gal3S(b1-4)]GlcNAc
Outline: as §1

B1: GS13599A-bth-520-23-520 (Bacteroides thetaiotaomicron) (protein)
chain: SEDTMDRINKDHDHTTSVASRFILADVITSTAFSNASGDINTYASSYIEYEVGVDNQLYYAEVRENEPSSSSTFNNSWNGIYSSLKNARIIIDQCGEGGRDHGNDVTRGMAEVMAAYNCALIADFFGDAPCSQAALVDEKGSPVYMTPKMDTQQEIYTQIISYLDDAIANLQKEDLADVTEQDFLYAGDADKWLKFAYGLKARYTMRLINRSSNKSADYEKVLDYVSKSFTSADDQAAFDIYDSNNINPFYGFYNSRAGFGASTSLGTKLLAYNDPRANRAFFTPIVDKKRSQVAANDPSLVPAPNGSPDQSTSKYGISAFVYAKTAPTLLMSYHELMFLKAEALCRLNRDAEDALKEAVVAGLLNAENSISIAIKELGSGLNTNSSEVITETSAGKYFDDVVKAKYAANPLQETMIQKYLAMWGASGEATETYNDFRRMKGLNENFITLTNPNNSSKFPLRYPYGNSDTAANPEVKAAYGNGDYVYSEPVWWAGGSR
- glycan array binding signal (z-score) [1]: -0.508
- glycan array binding signal (z-score) [2]: -0.356
- glycan array binding signal (z-score) [3]: -1.28
- glycan array binding signal (z-score) [4]: -0.294
- glycan array binding signal (z-score) [5]: 0.702
- glycan array binding signal (z-score) [6]: 0.224
- glycan array binding signal (z-score) [7]: 0.302
- glycan array binding signal (z-score) [8]: 0.509
- glycan array binding signal (z-score) [9]: -0.324
- glycan array binding signal (z-score) [10]: 1.43
- glycan array binding signal (z-score) [11]: -0.764
- glycan array binding signal (z-score) [12]: -0.507
- glycan array binding signal (z-score) [13]: 1.28
- glycan array binding signal (z-score) [14]: -0.373
- glycan array binding signal (z-score) [15]: -0.202
- glycan array binding signal (z-score) [16]: 0.709
- glycan array binding signal (z-score) [17]: -0.581
- glycan array binding signal (z-score) [18]: 0.21
- glycan array binding signal (z-score) [19]: -1.38
- glycan array binding signal (z-score) [20]: 0.824
- glycan array binding signal (z-score) [21]: -0.715
- glycan array binding signal (z-score) [22]: -0.861
- glycan array binding signal (z-score) [23]: 0.033
- glycan array binding signal (z-score) (Fuc(a1-3)GlcNAc): 0.449
- glycan array binding signal (z-score) [24]: 0.474
- glycan array binding signal (z-score) [25]: -0.868
- glycan array binding signal (z-score) [26]: 0.223
- glycan array binding signal (z-score) [27]: 0.707
- glycan array binding signal (z-score) [28]: 0.992
- glycan array binding signal (z-score) [29]: -1.03
- glycan array binding signal (z-score) [30]: 0.787
- glycan array binding signal (z-score) [31]: -0.194
- glycan array binding signal (z-score) [32]: -0.74
- glycan array binding signal (z-score) [33]: -0.71
- glycan array binding signal (z-score) [34]: -0.479
- glycan array binding signal (z-score) [35]: -0.749
- glycan array binding signal (z-score) [36]: -0.952
- glycan array binding signal (z-score) [37]: 0.884
